Screening data

Source: PubChem BioAssay AID504749 (NCATS, 2011).

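A panel of P. falciparum strains inside erythrocytes is exposed to compounds for three days, then a DNA-binding dye reports the amount of parasite DNA. Each compound was titrated across a series from about 0.000037 to 29 µM. The number is the fitted AC50, the concentration giving a half-maximal change in signal; a lower value means higher potency, whether the curve shows a decrease or an increase. Calls follow the curve class and fit quality: every row here is inconclusive, covering signal-raising curves and weak, poorly fitted, partial or highest-dose-only inhibition curves.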

Values are in µM. All entries here are filed as inconclusive. Only part of the assay is shown, chiefly results filed as inconclusive. A potency from a partial, single-point or poor curve is only a rough figure. The first word of each remark tells which way the curve ran; it can be opposite to the aim of the assay.

- CC1(CN2CCC(n3c(=O)[nH]c4ccccc43)CC2)OCc2ccccc2-n2cccc21 (configuration not stated) [CP256] : Potency 10 µM (inhibitor, single point)
- CC1(CN2CCC(n3c(=O)[nH]c4ccccc43)CC2)OCc2ccccc2-n2cccc21 (configuration not stated) [CP250] : Potency 11.22 µM (inhibitor, single point)
- CC1(CN2CCC(n3c(=O)[nH]c4ccccc43)CC2)OCc2ccccc2-n2cccc21 (configuration not stated) [CP252] : Potency 17.78 µM (inhibitor, single point)
- CC1(CN2CCC(n3c(=O)[nH]c4ccccc43)CC2)OCc2ccccc2-n2cccc21 (configuration not stated) [AA1029] : Potency 11.22 µM (inhibitor, single point)
- CC1(CN2CCC(n3c(=O)[nH]c4ccccc43)CC2)OCc2ccccc2-n2cccc21 (configuration not stated) [CP237] : Potency 10 µM (inhibitor, single point)
- CC1(CN2CCC(n3c(=O)[nH]c4ccccc43)CC2)OCc2ccccc2-n2cccc21 (configuration not stated) [CP217] : Potency 11.22 µM (inhibitor, single point)
- CC1(CN2CCC(n3c(=O)[nH]c4ccccc43)CC2)OCc2ccccc2-n2cccc21 (configuration not stated) [HB3] : Potency 8.912 µM (inhibitor, partial curve)
- CC1(CN2CCC(n3c(=O)[nH]c4ccccc43)CC2)OCc2ccccc2-n2cccc21 (configuration not stated) [TAB113] : Potency 11.22 µM (inhibitor, partial curve)
- O[C@@H](c1cc(C(F)(F)F)nc2c(C(F)(F)F)cccc12)[C@H]1CCCCN1 [PC15] : Potency 7.08 µM (inhibitor, partial curve, poor fit)
- O[C@@H](c1cc(C(F)(F)F)nc2c(C(F)(F)F)cccc12)[C@H]1CCCCN1 [PC49] : Potency 100 µM (inhibitor, partial curve, poor fit)
- O[C@@H](c1cc(C(F)(F)F)nc2c(C(F)(F)F)cccc12)[C@H]1CCCCN1 [W2] : Potency 0.0301 µM (activator)
- CN(Cc1cc(Br)cc(Br)c1N)C1CCCCC1 [CP335] : Potency 19.01 µM (inhibitor, single point)
- CN(Cc1cc(Br)cc(Br)c1N)C1CCCCC1 [ATS95] : Potency 10 µM (inhibitor, single point)
- CN(Cc1cc(Br)cc(Br)c1N)C1CCCCC1 [P93_24] : Potency 3.981 µM (inhibitor, single point)
- CN(Cc1cc(Br)cc(Br)c1N)C1CCCCC1 [ICS] : Potency 15.85 µM (inhibitor, single point)
- CN(Cc1cc(Br)cc(Br)c1N)C1CCCCC1 [CP260] : Potency 11.22 µM (inhibitor, single point)
- CN(Cc1cc(Br)cc(Br)c1N)C1CCCCC1 [TAB165] : Potency 11.22 µM (inhibitor, single point)
- CN(Cc1cc(Br)cc(Br)c1N)C1CCCCC1 [CP238] : Potency 11.22 µM (inhibitor, single point)
- CN(Cc1cc(Br)cc(Br)c1N)C1CCCCC1 [3D7] : Potency 17.78 µM (inhibitor, single point)
- CN(Cc1cc(Br)cc(Br)c1N)C1CCCCC1 [CP286] : Potency 10 µM (inhibitor, single point)
- CN(Cc1cc(Br)cc(Br)c1N)C1CCCCC1 [Dd2] : Potency 10 µM (inhibitor, partial curve)
- CN(Cc1cc(Br)cc(Br)c1N)C1CCCCC1 [7G8] : Potency 10 µM (inhibitor, single point)
- CN(Cc1cc(Br)cc(Br)c1N)C1CCCCC1 [DIV14] : Potency 19.01 µM (inhibitor, single point)
- CN(Cc1cc(Br)cc(Br)c1N)C1CCCCC1 [CP237] : Potency 11.22 µM (inhibitor, partial curve)
- CN(Cc1cc(Br)cc(Br)c1N)C1CCCCC1 [HB3] : Potency 11.22 µM (inhibitor, single point)
- CN(Cc1cc(Br)cc(Br)c1N)C1CCCCC1 [GB4] : Potency 7.569 µM (inhibitor, partial curve, poor fit)
- CN(Cc1cc(Br)cc(Br)c1N)C1CCCCC1 [P94_40] : Potency 10 µM (inhibitor, single point)
- CN(c1nccc(=O)[nH]1)C1CCN(c2nc3ccccc3n2Cc2ccc(F)cc2)CC1 [CP297] : Potency 4.256 µM (inhibitor, partial curve, poor fit)
- CN(c1nccc(=O)[nH]1)C1CCN(c2nc3ccccc3n2Cc2ccc(F)cc2)CC1 [TAB109] : Potency 10 µM (inhibitor, single point)
- CN(c1nccc(=O)[nH]1)C1CCN(c2nc3ccccc3n2Cc2ccc(F)cc2)CC1 [CP315] : Potency 15.1 µM (inhibitor, partial curve, poor fit)